Patent publication US20110033525A1, “Diterpene Glycosides as Natural Solubilizers” (priority 2008, published 2011)
Values after ≈ are worked out from the molar mass of the structure shown. Where two headings read alike, the source gives them in different places. At least one read-out could not be matched to a standard name with certainty. For at least one compound, name, drawing or mass did not settle the structure.

What was measured:
[1] = Procedure: Solubility test methods: A compound with low solubility was selected and weighed into multiple centrifuge tubes. Each experimental tube received a known amount of the solubilizing agent being tested. The control tubes remained only with the compound. The same volume, 1 mL, unless otherwise indicated, of deionized and distilled water was added to each tube. Alternatively, a set percentage of water solutions containing the solubilizer to be tested (e.g., 5% w/v or 10% w/v) were prepared separately. In these cases, the solubilizer-water solutions were added directly to the tubes containing the low-solubility compound. […] The supernatant solution was passed through a 0.2 μm or 0.45 μm filter and analyzed for the concentration of the low-solubility compound, and sometimes the solubilizing compound, by HPLC or UV-Vis spectrophotometer.
The system was computer controlled, and the results were analyzed using Empower software. Calibrations curves were constructed using known concentrations of the compounds and were used to quantify the concentrations of the compounds dissolved in solution. A more complete description of the HPLC procedure for some of the diterpene glycosides is found in G. Chou et al., “Quantitative and fingerprint analyses of Chinese sweet tea plant (Rubus suavissimus S. Lee),” J. Agric. […]

[2] = no solubilizer; from published Material Safety Data Sheets or The Merck Index, 1996; cited from earlier work

Row | Compound | Solubility in water with solubilizer ([1]; natural solubilizer (rubusoside) 10% w/v (100 mg in 1 ml)) | Solubility in water without solubilizer [2] | Solubility in water with solubilizer ([1]; natural solubilizer (rubusoside) 20% w/v (200 mg in 1 ml))
1 | C[C@@H]1[C@H](O)[C@@H](C)/C=C/C=C/CC/C=C/C=C/C=C/C=C/C(O[C@H]2O[C@H](C)[C@@H](O)[C@H](N)[C@@H]2O)CC2O[C@](O)(CC(O)C(O)CCC(O)CC(O)CC(O)CC(=O)O[C@H]1C)CC(O)C2C(=O)O (stereo partly shown) [Nystatin, reference compound] | 1,100 μg/mL | 66 µg/mL (≈ 71.3 µM) | –
2 | Cc1coc2c1C(=O)C(=O)c1c-2ccc2c1CCCC2(C)C [Tanshinone IIA] | – | 0.01 µg/mL (≈ 0.034 µM) | 127 µg/mL
